PubChem BioAssay AID1259405 – NCATS – 2018
In all, the deposit lists about 50,000 reagents; this is a part drawn at random. Of all reagents, about 4,000 (8%) were called active. 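Mouse siRNA library applied to hamster cells; one well for each siRNA.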 Unmarked entries are inactive. Reagents against one gene are numbered here.

Aim: 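Knock-downs that lift recombinant protein yield in hamster ovary cells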 (primary screen)
System: Chinese hamster CHO-K1 ovary cells with stable secreted eGFP expression
Reagent: single siRNA against mouse genes, 0.8 pmol siRNA per well (2 µl of 400 nM stock)
Duration: 3 days
Measurement: 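Per-well intracellular GFP measured by laser scanning cytometry, plus viability from ATP luminescence, each relative to plate median of non-targeting control wells, in %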
Scale: GFP, % of control: higher = more GFP per well, higher productivity; viability (ATP), % of control: higher = more viable cells (more ATP)
Hit rule: 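Called active when intracellular GFP, relative to negative control, is at or above 120%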

What did the screen give for Zfp764l1 (zinc finger protein 764 like 1) #1?
GFP, % of control: 74.6; viability (ATP), % of control: 84

What did the screen give for Zfp764l1 (zinc finger protein 764 like 1) #2?
GFP, % of control: 57.3; viability (ATP), % of control: 66

For Zfp764l1 (zinc finger protein 764 like 1) #3, what was measured?
GFP, % of control: 76.7; viability (ATP), % of control: 78.4

For Tnk1 (tyrosine kinase, non-receptor, 1) #1, what does the deposit list?
GFP, % of control: 54.1; viability (ATP), % of control: 52.1

What did the screen give for Tnk1 (tyrosine kinase, non-receptor, 1) #2?
GFP, % of control: 57.3; viability (ATP), % of control: 83.5

What is on record for Tnk1 (tyrosine kinase, non-receptor, 1) #3?
GFP, % of control: 41.8; viability (ATP), % of control: 55.9

With Acp6 (acid phosphatase 6, lysophosphatidic) #1, how do the results read?
GFP, % of control: 97.4; viability (ATP), % of control: 85.7

With Acp6 (acid phosphatase 6, lysophosphatidic) #2, how do the results read?
GFP, % of control: 99.8; viability (ATP), % of control: 97.4

What is on record for Acp6 (acid phosphatase 6, lysophosphatidic) #3?
GFP, % of control: 71.1; viability (ATP), % of control: 62.2

What is on record for Zfand3 (zinc finger, AN1-type domain 3) #1?
GFP, % of control: 80.7; viability (ATP), % of control: 71.2

With Zfand3 (zinc finger, AN1-type domain 3) #2, how do the results read?
GFP, % of control: 88.8; viability (ATP), % of control: 151

For Zfand3 (zinc finger, AN1-type domain 3) #3, what does the deposit list?
GFP, % of control: 141 (active); viability (ATP), % of control: 148

With Apex2 (apurinic/apyrimidinic endonuclease 2) #1, what does the deposit list?
GFP, % of control: 78.4; viability (ATP), % of control: 87.9

Which result is listed for Apex2 (apurinic/apyrimidinic endonuclease 2) #2?
GFP, % of control: 108; viability (ATP), % of control: 105

For Apex2 (apurinic/apyrimidinic endonuclease 2) #3, what was measured?
GFP, % of control: 88.4; viability (ATP), % of control: 90.5

How did the screen score Apex1 (apurinic/apyrimidinic endonuclease 1) #1?
GFP, % of control: 83.9; viability (ATP), % of control: 69.9

For Apex1 (apurinic/apyrimidinic endonuclease 1) #2, what was measured?
GFP, % of control: 81; viability (ATP), % of control: 63.1

How did the screen score Apex1 (apurinic/apyrimidinic endonuclease 1) #3?
GFP, % of control: 117; viability (ATP), % of control: 102

Which result is listed for Etos1 (ectopic ossification 1) #1?
GFP, % of control: 108; viability (ATP), % of control: 105

Which result is listed for Etos1 (ectopic ossification 1) #2?
GFP, % of control: 126 (active); viability (ATP), % of control: 99.3

How did the screen score Etos1 (ectopic ossification 1) #3?
GFP, % of control: 137 (active); viability (ATP), % of control: 106

For Or2h1b (olfactory receptor family 2 subfamily H member 1B) #1, how do the results read?
GFP, % of control: 85.7; viability (ATP), % of control: 78.1

What did the screen give for Or2h1b (olfactory receptor family 2 subfamily H member 1B) #2?
GFP, % of control: 103; viability (ATP), % of control: 76

Which result is listed for Or2h1b (olfactory receptor family 2 subfamily H member 1B) #3?
GFP, % of control: 80; viability (ATP), % of control: 94.1

With Ppia (peptidylprolyl isomerase A) #1, what was measured?
GFP, % of control: 53.9; viability (ATP), % of control: 50.8

For Ppia (peptidylprolyl isomerase A) #2, how do the results read?
GFP, % of control: 74.2; viability (ATP), % of control: 81.9

For Ppia (peptidylprolyl isomerase A) #3, what was measured?
GFP, % of control: 63.9; viability (ATP), % of control: 56.3

For Myl3 (myosin, light polypeptide 3) #1, what was measured?
GFP, % of control: 52.4; viability (ATP), % of control: 40.9

With Myl3 (myosin, light polypeptide 3) #2, what does the deposit list?
GFP, % of control: 56; viability (ATP), % of control: 77.8

For H1f1 (H1.1 linker histone, cluster member) #1, what was measured?
GFP, % of control: 84.5; viability (ATP), % of control: 84.2

With H1f1 (H1.1 linker histone, cluster member) #2, what does the deposit list?
GFP, % of control: 106; viability (ATP), % of control: 85.9

For H1f1 (H1.1 linker histone, cluster member) #3, what was measured?
GFP, % of control: 56.4; viability (ATP), % of control: 73.4

With Plekho1 (pleckstrin homology domain containing O1) #1, how do the results read?
GFP, % of control: 84.5; viability (ATP), % of control: 86.8

For Plekho1 (pleckstrin homology domain containing O1) #2, what does the deposit list?
GFP, % of control: 87.1; viability (ATP), % of control: 84.8

For Plekho1 (pleckstrin homology domain containing O1) #3, what was measured?
GFP, % of control: 90.2; viability (ATP), % of control: 74.9

With Tmem144 (transmembrane protein 144) #1, how do the results read?
GFP, % of control: 118; viability (ATP), % of control: 83.9

What is on record for Tmem144 (transmembrane protein 144) #2?
GFP, % of control: 86.5; viability (ATP), % of control: 96.1

For Tmem144 (transmembrane protein 144) #3, how do the results read?
GFP, % of control: 100; viability (ATP), % of control: 79.4

With 6430548M08Rik (RIKEN cDNA 6430548M08 gene) #1, how do the results read?
GFP, % of control: 43.6; viability (ATP), % of control: 26.4

What is on record for 6430548M08Rik (RIKEN cDNA 6430548M08 gene) #2?
GFP, % of control: 131 (active); viability (ATP), % of control: 85.3

For 6430548M08Rik (RIKEN cDNA 6430548M08 gene) #3, what does the deposit list?
GFP, % of control: 161 (active); viability (ATP), % of control: 158

Not a retest: an excerpt of the list.
Myl3 (myosin, light polypeptide 3) #2 | GFP, % of control = 56; viability (ATP), % of control = 77.8
H1f1 (H1.1 linker histone, cluster member) #1 | GFP, % of control = 84.5; viability (ATP), % of control = 84.2
H1f1 (H1.1 linker histone, cluster member) #2 | GFP, % of control = 106; viability (ATP), % of control = 85.9
